Publication PMC11972349
No constants are given. Whether binding was seen depends on the method and setting. In cells and extracts the contact can be indirect. Some entries that bind do so weakly or less than the wild type.

Chains of the proteins cited; added tags and fusions are not shown.
UniProt Q9Y572: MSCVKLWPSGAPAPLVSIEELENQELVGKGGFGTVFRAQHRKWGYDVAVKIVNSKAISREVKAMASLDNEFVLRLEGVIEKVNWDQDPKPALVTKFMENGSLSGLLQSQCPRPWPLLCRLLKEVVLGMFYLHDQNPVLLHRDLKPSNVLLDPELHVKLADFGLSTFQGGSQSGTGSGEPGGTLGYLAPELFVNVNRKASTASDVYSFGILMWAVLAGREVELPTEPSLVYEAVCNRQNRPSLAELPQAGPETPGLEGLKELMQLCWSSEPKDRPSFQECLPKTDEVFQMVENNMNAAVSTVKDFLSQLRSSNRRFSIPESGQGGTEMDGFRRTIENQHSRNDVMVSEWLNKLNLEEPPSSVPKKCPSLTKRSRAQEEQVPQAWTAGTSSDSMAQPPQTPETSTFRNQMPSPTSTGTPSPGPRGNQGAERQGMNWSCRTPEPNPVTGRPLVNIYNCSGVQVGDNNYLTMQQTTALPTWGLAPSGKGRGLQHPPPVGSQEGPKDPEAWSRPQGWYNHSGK

Columns and labels:
Test in all cases: co-IP; HBE cells treated with 200 ug/ml LPS for 48 h; IP lysis solution with protease and phosphatase inhibitors; 750 ug protein with protein A/G agarose and anti-p-MLKL, anti-p-RIPK1 or anti-p-RIPK3 (IgG as control) overnight at 4 °C; washed five times; western blotting
[1] = target: phosphorylated RIPK3 (human (endogenous in HBE)) (UniProt Q9Y572)
[2] = target: phosphorylated RIPK1 (human (endogenous in HBE)) (UniProt Q13546)
[3] = target: T1, phosphorylated MLKL (human (endogenous in HBE)), Q8NB16; conditions: remark: other sources report otherwise
T1 chain: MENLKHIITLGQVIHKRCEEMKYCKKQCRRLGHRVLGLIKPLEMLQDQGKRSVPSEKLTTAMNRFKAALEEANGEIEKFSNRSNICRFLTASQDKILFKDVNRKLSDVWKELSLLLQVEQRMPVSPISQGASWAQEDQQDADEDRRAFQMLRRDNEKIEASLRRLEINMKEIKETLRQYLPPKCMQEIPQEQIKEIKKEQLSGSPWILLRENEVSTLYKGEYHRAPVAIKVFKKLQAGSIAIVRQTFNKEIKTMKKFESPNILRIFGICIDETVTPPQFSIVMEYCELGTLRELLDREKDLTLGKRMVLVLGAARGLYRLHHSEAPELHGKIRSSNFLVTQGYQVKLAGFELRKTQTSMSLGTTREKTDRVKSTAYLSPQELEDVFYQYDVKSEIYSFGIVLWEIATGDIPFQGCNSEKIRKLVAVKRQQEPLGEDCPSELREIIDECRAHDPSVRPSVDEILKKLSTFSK

[4] = target: T2, phosphorylated RIPK1 (human (endogenous in HBE)), Q13546; conditions: remark: other sources report otherwise
T2 chain: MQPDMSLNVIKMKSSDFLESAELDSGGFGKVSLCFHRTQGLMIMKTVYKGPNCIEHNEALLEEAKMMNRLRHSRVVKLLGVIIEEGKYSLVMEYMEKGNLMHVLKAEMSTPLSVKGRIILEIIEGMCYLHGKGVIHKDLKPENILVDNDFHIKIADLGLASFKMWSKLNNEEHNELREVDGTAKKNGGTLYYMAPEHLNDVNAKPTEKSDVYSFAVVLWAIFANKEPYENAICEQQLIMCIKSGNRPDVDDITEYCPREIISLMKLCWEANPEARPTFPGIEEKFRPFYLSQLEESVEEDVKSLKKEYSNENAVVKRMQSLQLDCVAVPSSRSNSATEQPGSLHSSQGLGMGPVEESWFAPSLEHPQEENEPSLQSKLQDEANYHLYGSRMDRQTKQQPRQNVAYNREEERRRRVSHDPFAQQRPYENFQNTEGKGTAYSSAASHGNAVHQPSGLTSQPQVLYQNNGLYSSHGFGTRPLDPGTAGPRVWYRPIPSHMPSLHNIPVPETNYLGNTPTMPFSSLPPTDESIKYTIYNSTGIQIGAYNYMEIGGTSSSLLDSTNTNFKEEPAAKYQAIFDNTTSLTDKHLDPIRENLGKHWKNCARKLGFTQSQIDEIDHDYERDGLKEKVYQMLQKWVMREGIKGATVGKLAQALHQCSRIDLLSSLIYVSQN

phosphorylated RIPK1 (from UniProt Q13546 1-671)
binding [1]: binds

phosphorylated RIPK3 (from UniProt Q9Y572 1-518)
binding [2]: binds

B1: phosphorylated RIPK1, Q13546 1-671 (protein)
chain: MQPDMSLNVIKMKSSDFLESAELDSGGFGKVSLCFHRTQGLMIMKTVYKGPNCIEHNEALLEEAKMMNRLRHSRVVKLLGVIIEEGKYSLVMEYMEKGNLMHVLKAEMSTPLSVKGRIILEIIEGMCYLHGKGVIHKDLKPENILVDNDFHIKIADLGLASFKMWSKLNNEEHNELREVDGTAKKNGGTLYYMAPEHLNDVNAKPTEKSDVYSFAVVLWAIFANKEPYENAICEQQLIMCIKSGNRPDVDDITEYCPREIISLMKLCWEANPEARPTFPGIEEKFRPFYLSQLEESVEEDVKSLKKEYSNENAVVKRMQSLQLDCVAVPSSRSNSATEQPGSLHSSQGLGMGPVEESWFAPSLEHPQEENEPSLQSKLQDEANYHLYGSRMDRQTKQQPRQNVAYNREEERRRRVSHDPFAQQRPYENFQNTEGKGTAYSSAASHGNAVHQPSGLTSQPQVLYQNNGLYSSHGFGTRPLDPGTAGPRVWYRPIPSHMPSLHNIPVPETNYLGNTPTMPFSSLPPTDESIKYTIYNSTGIQIGAYNYMEIGGTSSSLLDSTNTNFKEEPAAKYQAIFDNTTSLTDKHLDPIRENLGKHWKNCARKLGFTQSQIDEIDHDYERDGLKEKVYQMLQKWVMREGIKGATVGKLAQALHQCSRIDLLSSLIYVSQN
modifications: here or on the partner: phosphorylated (p-RIPK1); phosphorylated residue not given; phosphorylated (p-MLKL); phosphorylated residue not given
binding [3]: binds

B2: phosphorylated MLKL, Q8NB16 1-471 (protein)
chain: MENLKHIITLGQVIHKRCEEMKYCKKQCRRLGHRVLGLIKPLEMLQDQGKRSVPSEKLTTAMNRFKAALEEANGEIEKFSNRSNICRFLTASQDKILFKDVNRKLSDVWKELSLLLQVEQRMPVSPISQGASWAQEDQQDADEDRRAFQMLRRDNEKIEASLRRLEINMKEIKETLRQYLPPKCMQEIPQEQIKEIKKEQLSGSPWILLRENEVSTLYKGEYHRAPVAIKVFKKLQAGSIAIVRQTFNKEIKTMKKFESPNILRIFGICIDETVTPPQFSIVMEYCELGTLRELLDREKDLTLGKRMVLVLGAARGLYRLHHSEAPELHGKIRSSNFLVTQGYQVKLAGFELRKTQTSMSLGTTREKTDRVKSTAYLSPQELEDVFYQYDVKSEIYSFGIVLWEIATGDIPFQGCNSEKIRKLVAVKRQQEPLGEDCPSELREIIDECRAHDPSVRPSVDEILKKLSTFSK
modifications: here or on the partner: phosphorylated (p-MLKL); phosphorylated residue not given; phosphorylated (p-RIPK1); phosphorylated residue not given
binding [4]: binds
